Results on 1 substance are retold here after patent US20230301988A1 (priority 2020, published 2023).

Some peptides are written in HELM: one residue between dots, names in brackets for other building blocks, links after the first $.

This series in a line: general procedure: Fmoc solid-phase peptide synthesis; Rink Amide AM resin (Novabiochem, 0.73 mmol/g); COMU/DIPEA. The following applies: whole synthesis, formic acid salt.

As for “PEPTIDE1{[Abz].S.A.V.L.Q.S.G.F.R.[Lys(DNP)].[am]}$$$$V2.0”, the isolated mass came to 42.4 mg. Also, the “final purity (method not given)” value (UV 350 nm, scale of the general procedure 200 umol) is listed as at least 95%. Also, the isolated yield (scale of the general procedure 200 umol) was 29.2%.
